Assay results: the supplement of paper PMC10849652
This is one part of the list.

Protein sequences, listed by entry. Tags and fused reporters are not part of them. Lines headed by an entry give the natural chain unless they say otherwise; changes in a name come on top.
UniProt Q9BQ69: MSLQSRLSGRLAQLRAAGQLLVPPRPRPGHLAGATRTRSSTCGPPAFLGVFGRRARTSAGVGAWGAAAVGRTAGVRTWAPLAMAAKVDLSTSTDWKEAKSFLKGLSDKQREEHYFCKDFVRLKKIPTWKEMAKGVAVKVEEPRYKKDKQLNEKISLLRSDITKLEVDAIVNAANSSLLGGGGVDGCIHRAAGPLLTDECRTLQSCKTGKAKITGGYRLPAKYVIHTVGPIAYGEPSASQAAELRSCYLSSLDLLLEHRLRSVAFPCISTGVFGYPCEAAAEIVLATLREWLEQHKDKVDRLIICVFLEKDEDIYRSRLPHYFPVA
UniProt P43362: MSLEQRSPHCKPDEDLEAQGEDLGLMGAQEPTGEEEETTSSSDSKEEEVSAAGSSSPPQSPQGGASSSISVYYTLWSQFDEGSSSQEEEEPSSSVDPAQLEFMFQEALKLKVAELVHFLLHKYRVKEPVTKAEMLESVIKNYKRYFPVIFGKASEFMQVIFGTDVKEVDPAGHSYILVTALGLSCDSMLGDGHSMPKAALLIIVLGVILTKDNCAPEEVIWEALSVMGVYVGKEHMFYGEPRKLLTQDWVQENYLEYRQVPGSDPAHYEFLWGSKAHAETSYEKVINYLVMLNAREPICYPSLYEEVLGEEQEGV
UniProt P62310: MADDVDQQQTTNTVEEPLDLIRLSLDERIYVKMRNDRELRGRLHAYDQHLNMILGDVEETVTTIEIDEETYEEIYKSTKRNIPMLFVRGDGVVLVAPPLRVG
UniProt P43366: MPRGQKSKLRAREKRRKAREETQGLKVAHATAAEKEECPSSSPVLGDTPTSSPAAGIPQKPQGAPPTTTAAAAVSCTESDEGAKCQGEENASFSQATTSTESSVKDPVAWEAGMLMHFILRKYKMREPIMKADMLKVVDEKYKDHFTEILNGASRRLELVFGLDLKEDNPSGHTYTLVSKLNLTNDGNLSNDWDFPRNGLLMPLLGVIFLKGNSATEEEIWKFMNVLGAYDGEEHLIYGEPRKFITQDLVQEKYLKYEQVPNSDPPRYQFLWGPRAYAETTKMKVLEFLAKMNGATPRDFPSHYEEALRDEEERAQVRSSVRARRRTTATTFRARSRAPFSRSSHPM
UniProt Q8WV07: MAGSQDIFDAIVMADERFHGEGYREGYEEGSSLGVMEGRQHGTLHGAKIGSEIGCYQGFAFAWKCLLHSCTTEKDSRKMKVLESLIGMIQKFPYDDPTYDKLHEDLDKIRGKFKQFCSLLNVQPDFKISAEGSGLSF
UniProt O43325: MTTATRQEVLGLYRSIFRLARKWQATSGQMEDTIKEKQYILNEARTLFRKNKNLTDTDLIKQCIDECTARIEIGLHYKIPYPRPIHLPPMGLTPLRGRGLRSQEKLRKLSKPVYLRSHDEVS
UniProt Q9Y6R4: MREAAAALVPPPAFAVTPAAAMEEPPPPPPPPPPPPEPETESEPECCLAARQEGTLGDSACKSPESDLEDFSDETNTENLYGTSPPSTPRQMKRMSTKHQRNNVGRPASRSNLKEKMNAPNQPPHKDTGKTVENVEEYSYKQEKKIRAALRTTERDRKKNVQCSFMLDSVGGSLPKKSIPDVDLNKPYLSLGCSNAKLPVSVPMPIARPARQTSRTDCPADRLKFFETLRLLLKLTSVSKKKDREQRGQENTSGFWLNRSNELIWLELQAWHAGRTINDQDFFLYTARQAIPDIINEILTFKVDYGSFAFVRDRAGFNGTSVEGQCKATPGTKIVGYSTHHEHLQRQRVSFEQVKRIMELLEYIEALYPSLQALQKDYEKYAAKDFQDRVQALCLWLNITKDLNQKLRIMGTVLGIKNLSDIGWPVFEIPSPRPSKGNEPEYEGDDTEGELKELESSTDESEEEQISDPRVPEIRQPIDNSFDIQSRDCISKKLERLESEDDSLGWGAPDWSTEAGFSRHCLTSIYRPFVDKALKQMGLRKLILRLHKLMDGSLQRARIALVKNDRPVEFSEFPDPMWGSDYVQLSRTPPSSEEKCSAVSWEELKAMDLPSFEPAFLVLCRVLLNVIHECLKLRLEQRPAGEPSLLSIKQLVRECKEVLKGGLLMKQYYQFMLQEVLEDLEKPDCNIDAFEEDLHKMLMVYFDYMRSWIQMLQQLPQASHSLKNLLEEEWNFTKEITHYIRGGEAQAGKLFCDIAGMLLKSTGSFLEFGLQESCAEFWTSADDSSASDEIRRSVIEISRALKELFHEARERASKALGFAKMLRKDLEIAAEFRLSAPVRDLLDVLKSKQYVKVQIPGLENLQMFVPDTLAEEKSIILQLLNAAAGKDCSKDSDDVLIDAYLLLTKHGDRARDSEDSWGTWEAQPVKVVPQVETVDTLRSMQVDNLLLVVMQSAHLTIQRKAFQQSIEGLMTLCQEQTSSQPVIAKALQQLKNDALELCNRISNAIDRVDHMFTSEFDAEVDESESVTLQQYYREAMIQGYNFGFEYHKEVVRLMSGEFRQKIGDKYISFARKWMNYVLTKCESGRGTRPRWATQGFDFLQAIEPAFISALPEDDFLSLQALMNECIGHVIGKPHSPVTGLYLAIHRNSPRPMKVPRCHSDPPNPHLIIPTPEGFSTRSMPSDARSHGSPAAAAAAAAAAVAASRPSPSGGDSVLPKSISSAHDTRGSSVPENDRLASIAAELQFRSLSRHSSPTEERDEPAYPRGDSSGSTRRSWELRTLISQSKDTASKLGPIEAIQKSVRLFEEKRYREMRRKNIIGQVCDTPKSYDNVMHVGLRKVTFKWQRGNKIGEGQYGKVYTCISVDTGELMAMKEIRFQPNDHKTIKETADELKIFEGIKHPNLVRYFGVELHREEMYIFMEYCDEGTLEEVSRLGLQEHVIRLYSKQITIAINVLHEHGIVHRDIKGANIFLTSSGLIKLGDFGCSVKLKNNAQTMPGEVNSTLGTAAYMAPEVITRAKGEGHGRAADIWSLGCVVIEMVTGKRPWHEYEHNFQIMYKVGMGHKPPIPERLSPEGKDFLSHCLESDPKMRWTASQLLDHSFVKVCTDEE
UniProt O60337: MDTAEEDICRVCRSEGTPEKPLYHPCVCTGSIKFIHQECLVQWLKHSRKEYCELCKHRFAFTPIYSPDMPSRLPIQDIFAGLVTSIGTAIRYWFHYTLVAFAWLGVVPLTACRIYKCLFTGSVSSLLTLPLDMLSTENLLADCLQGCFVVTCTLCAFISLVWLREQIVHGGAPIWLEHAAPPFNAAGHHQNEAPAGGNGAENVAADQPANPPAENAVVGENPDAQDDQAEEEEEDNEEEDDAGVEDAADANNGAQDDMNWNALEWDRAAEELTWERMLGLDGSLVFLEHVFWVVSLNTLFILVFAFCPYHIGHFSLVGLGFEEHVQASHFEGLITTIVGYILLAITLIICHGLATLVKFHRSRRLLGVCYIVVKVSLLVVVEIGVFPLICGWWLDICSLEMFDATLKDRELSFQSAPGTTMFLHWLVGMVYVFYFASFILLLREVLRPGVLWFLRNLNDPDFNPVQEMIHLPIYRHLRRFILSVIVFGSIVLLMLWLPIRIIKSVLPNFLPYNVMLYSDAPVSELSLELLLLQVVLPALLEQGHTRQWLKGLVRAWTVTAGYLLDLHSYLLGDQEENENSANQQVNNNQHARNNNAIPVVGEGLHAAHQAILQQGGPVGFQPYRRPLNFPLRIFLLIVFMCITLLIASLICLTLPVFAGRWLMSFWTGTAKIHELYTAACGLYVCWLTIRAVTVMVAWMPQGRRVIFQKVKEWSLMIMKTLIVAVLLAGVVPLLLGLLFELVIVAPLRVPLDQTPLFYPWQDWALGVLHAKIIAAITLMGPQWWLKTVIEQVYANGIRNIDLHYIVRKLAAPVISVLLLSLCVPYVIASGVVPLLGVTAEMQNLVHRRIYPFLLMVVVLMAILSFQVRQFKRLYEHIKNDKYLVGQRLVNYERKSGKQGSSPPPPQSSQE
UniProt Q86X29: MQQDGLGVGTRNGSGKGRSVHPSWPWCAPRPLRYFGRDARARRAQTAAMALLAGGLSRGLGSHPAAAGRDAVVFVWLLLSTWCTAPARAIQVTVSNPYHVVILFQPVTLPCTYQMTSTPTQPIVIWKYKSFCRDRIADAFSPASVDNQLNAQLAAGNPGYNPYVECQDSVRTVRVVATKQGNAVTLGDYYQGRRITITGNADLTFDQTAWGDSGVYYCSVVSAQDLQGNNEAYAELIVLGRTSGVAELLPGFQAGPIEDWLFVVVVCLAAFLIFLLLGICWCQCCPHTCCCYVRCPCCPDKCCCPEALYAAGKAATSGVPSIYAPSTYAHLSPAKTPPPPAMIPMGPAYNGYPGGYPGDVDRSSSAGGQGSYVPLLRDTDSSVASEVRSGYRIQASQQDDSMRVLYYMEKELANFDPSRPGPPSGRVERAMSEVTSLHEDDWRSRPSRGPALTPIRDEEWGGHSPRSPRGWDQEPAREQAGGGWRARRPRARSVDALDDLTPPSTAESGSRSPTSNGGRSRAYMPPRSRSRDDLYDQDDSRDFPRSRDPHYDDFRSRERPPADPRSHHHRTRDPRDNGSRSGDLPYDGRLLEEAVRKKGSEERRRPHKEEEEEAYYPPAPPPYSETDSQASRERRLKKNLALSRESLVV
UniProt Q16659, whole entry, looked up: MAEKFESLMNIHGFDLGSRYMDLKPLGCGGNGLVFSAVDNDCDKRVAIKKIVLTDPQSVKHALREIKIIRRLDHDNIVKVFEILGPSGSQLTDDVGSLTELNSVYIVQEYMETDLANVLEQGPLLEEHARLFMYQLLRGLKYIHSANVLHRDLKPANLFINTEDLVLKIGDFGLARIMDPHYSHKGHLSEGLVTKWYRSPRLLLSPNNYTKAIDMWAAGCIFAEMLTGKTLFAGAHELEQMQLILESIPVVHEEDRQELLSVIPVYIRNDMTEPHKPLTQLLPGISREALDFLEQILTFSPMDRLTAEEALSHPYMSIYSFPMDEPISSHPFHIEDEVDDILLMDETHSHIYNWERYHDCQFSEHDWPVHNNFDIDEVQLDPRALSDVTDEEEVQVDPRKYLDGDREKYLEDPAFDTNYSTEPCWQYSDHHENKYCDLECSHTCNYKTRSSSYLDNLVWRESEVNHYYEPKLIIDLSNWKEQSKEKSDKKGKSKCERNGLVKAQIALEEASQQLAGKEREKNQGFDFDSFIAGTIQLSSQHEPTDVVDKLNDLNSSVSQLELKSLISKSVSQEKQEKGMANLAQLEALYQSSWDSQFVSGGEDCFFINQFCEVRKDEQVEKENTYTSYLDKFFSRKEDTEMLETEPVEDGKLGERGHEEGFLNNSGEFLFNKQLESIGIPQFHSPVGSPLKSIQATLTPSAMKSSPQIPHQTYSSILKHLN
UniProt P53778: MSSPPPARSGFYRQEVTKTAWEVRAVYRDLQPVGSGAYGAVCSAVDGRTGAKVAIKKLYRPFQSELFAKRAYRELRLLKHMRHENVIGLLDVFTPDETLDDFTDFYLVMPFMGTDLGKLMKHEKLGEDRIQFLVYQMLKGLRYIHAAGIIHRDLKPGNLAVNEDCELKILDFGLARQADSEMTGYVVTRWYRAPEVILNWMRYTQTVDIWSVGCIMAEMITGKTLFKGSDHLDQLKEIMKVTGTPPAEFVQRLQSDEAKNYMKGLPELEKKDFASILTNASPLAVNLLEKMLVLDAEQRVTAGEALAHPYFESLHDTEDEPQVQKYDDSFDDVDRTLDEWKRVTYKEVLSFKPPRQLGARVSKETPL
UniProt P43355: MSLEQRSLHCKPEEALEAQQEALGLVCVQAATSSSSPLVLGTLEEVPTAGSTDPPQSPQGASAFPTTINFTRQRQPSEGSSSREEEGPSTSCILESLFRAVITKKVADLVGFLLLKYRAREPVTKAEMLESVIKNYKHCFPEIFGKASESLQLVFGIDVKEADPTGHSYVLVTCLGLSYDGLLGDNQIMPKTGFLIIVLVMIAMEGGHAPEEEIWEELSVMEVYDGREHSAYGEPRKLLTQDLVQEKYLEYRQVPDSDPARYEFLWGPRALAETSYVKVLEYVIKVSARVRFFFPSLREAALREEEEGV
UniProt P49137, whole entry, looked up: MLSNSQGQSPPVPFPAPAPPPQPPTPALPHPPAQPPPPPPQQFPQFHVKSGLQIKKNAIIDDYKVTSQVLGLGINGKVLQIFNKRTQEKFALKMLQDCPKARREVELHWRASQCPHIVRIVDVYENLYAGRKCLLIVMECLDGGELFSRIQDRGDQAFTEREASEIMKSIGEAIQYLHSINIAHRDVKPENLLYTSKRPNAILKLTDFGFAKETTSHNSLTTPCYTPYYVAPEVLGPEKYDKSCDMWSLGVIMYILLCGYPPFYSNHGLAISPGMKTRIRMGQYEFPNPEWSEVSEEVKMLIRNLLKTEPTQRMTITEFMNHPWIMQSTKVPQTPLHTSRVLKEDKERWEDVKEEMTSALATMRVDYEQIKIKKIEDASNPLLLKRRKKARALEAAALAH
UniProt Q96S90: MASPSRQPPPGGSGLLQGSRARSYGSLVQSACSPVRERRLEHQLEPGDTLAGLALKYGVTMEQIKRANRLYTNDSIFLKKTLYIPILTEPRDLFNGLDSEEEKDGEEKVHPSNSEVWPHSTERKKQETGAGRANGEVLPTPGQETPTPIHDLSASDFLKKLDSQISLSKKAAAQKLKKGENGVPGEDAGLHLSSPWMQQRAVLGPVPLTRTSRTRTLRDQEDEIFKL

Key:
Test in all cases: log2 fold change, soluble protein after heating vs DMSO (PISA); higher = thermal stabilisation; K562 cells, 10 uM, 30 min; active = over 0.2 and 3.5 SD of the protein, either way, in both replicates (recomputed)
[1] = compound: C1=CC=C(C=C1)[C@H](COC2=CC3=C(C=C2)NC(=O)N3)NC(=O)C4=CC=CN(C4=O)CC5=CC(=C(C=C5)F)F
How it was run: (§1)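 K562 cells (2×10^6 cells/mL) were treated with 10 μM compound for 30 min, and aliquots were heated for 3 min over 48°C-58°C. Pooled aliquots were extracted in PBS with 0.5% NP-40 at 4°C, and the supernatant after 21,000xg for 90 min was measured by TMTpro 16plex LC-MS/MS with channel sums equalised. Reported thermal stability, relative to control samples and from duplicates, is a log2 fold change.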

[2] = compound: CC1=C(SC2=C1C(=N[C@H](C3=NN=C(N32)C)CC(=O)N)C4=CC=C(C=C4)Cl)C
How it was run: as §1

[3] = compound: CC1=C2C(=CC=C1)N=C(N(C2=O)C3=CC=CC=C3C)CN4C=NC5=C(N=CN=C54)N
How it was run: as §1

[4] = compound: Cc1sc2c(c1C)C(c1ccc(Cl)cc1)=N[C@@H](CC(=O)OC(C)(C)C)c1nnc(C)n1-2
How it was run: as §1

[5] = compound: c1ccc([C@@H]2C[C@H]2NC2CCNCC2)cc1
How it was run: as §1

Measured: log2 fold change

MAPK14 isoform 2 (UniProt Q16539)
inactive: [1] -0.067 | [2] 0.139 | [3] 0.077 | [4] -0.011 | [5] -0.043

LRSAM1 (UniProt Q6UWE0)
inactive: [1] 0.057 | [2] 0.038 | [3] 0.046 | [4] 0.001 | [5] -0.004

LTN1 isoform 3 (UniProt O94822)
inactive: [1] -0.058 | [2] 0.015 | [3] 0.08 | [4] -0.003 | [5] -0.005

MACROD1 (UniProt Q9BQ69)
inactive: [1] -0.111 | [2] 0.086 | [3] 0.315 | [4] -0.022 | [5] -0.039

LSM1 (UniProt O15116)
inactive: [1] -0.025 | [2] 0.08 | [3] 0.05 | [4] -0.083 | [5] 0.022

MAD2L1BP isoform 3 (UniProt Q15013)
inactive: [1] -0.01 | [2] 0.008 | [3] -0.011 | [4] 0.016 | [5] 0.066

MAGEA9 (UniProt P43362)
inactive: [1] 0.046 | [2] -0.03 | [3] 0.047 | [4] -0.055 | [5] -0.067

MAD1L1 (UniProt Q9Y6D9)
inactive: [1] -0.018 | [2] 0.008 | [3] 0.206 | [4] -0.045 | [5] 0.2

MAGEB2 (UniProt O15479)
inactive: [1] 0.112 | [2] -0.213 | [3] -0.208 | [4] 0.157 | [5] 0.061

LSM3 (UniProt P62310)
inactive: [1] 0.033 | [2] 0.02 | [3] -0.074 | [4] -0.03 | [5] 0.016

MALSU1 (UniProt Q96EH3)
inactive: [1] 0.05 | [2] 0.21 | [3] 0.081 | [4] 0.005 | [5] 0.03

MAGEC2 (UniProt Q9UBF1)
inactive: [1] 0.043 | [2] -0.069 | [3] 0.005 | [4] 0.009 | [5] 0.054

MAPKAPK3 (UniProt Q16644)
inactive: [1] -0.122 | [2] 0.013 | [3] 0.027 | [4] -0.034 | [5] -0.109

LSM14A isoform 2 (UniProt Q8ND56)
inactive: [1] 0.007 | [2] 0.03 | [3] 0.096 | [4] 0.009 | [5] -0.031

MACF1 (UniProt Q9UPN3)
inactive: [1] -0.026 | [2] -0.021 | [3] 0.032 | [4] 0.037 | [5] -0.012

MAGI1 (UniProt Q96QZ7)
inactive: [1] 0.025 | [2] -0.026 | [3] -0.005 | [4] 0.054 | [5] -0.016

LYPLAL1 (UniProt Q5VWZ2)
inactive: [1] -0.052 | [2] 0.089 | [3] 0.067 | [4] -0.055 | [5] -0.111

MAPK9 (UniProt P45984)
inactive: [1] 0.015 | [2] 0.015 | [3] 0.039 | [4] -0.042 | [5] 0.004

LYPLA1 (UniProt O75608)
inactive: [1] 0.008 | [2] 0.11 | [3] 0.055 | [4] -0.098 | [5] 0.002

MAN1A1 (UniProt P33908)
inactive: [1] 0.042 | [2] -0.028 | [3] 0.087 | [4] 0.009 | [5] 0.021

Reprinted from the entries so far (two entries):
MAGI1 (UniProt Q96QZ7)
inactive: [1] 0.025 | [2] -0.026 | [3] -0.005 | [4] 0.054 | [5] -0.016

LYPLAL1 (UniProt Q5VWZ2)
inactive: [1] -0.052 | [2] 0.089 | [3] 0.067 | [4] -0.055 | [5] -0.111

(next part)

MAN2C1 isoform 4 (UniProt Q9NTJ4)
inactive: [1] -0.082 | [2] -0.006 | [3] 0.002 | [4] -0.016 | [5] 0.051

MANF (UniProt P55145)
inactive: [1] -0.004 | [2] 0 | [3] -0.039 | [4] -0.003 | [5] -0.003

LRWD1 (UniProt Q9UFC0)
inactive: [1] -0.053 | [2] 0.079 | [3] 0.2 | [4] -0.001 | [5] -0.11

MAGEB1 (UniProt P43366)
inactive: [1] 0.121 | [2] -0.248 | [3] -0.257 | [4] 0.296 | [5] 0.029

LTO1 (UniProt Q8WV07)
inactive: [1] 0.054 | [2] -0.02 | [3] 0.142 | [4] -0.062 | [5] 0.03

MAGED2 (UniProt Q9UNF1)
inactive: [1] 0.002 | [2] 0.21 | [3] 0.111 | [4] -0.035 | [5] -0.029

LYRM1 (UniProt O43325)
inactive: [1] -0.05 | [2] 0.037 | [3] 0.08 | [4] 0.005 | [5] 0.006

MAEA (UniProt Q7L5Y9)
inactive: [1] -0.003 | [2] 0.021 | [3] 0.044 | [4] 0.001 | [5] 0.021

MAP3K4 isoform 2 (UniProt Q9Y6R4)
inactive: [1] -0.047 | [2] 0.026 | [3] 0.057 | [4] -0.034 | [5] 0.018

MAPRE1 (UniProt Q15691)
inactive: [1] -0.017 | [2] 0.038 | [3] 0.087 | [4] -0.031 | [5] -0.027

LYRM7 (UniProt Q5U5X0)
inactive: [1] 0.03 | [2] 0.038 | [3] -0.017 | [4] -0.026 | [5] -0.028

MARCHF6 (UniProt O60337)
inactive: [1] 0.031 | [2] 0.034 | [3] 0.024 | [4] -0.05 | [5] -0.102

LSR (UniProt Q86X29)
inactive: [1] -0.016 | [2] 0.033 | [3] 0.006 | [4] -0.034 | [5] 0.015

MAPK6 (UniProt Q16659)
inactive: [1] 0.059 | [2] -0.033 | [3] 0.089 | [4] -0.084 | [5] 0.03

LYSMD2 (UniProt Q8IV50)
inactive: [1] -0.019 | [2] 0.073 | [3] 0.037 | [4] -0.005 | [5] 0.017

LSS (UniProt P48449)
inactive: [1] -0.077 | [2] 0.059 | [3] 0.127 | [4] -0.018 | [5] 0.087

MAPK12 (UniProt P53778)
inactive: [1] -0.022 | [2] 0.017 | [3] 0.026 | [4] 0.008 | [5] -0.002

LZIC isoform 2 (UniProt Q8WZA0)
inactive: [1] 0.041 | [2] 0.047 | [3] 0.007 | [4] 0.002 | [5] 0.001

MAPKAPK5 (UniProt Q8IW41)
inactive: [1] 0.042 | [2] 0.001 | [3] 0.015 | [4] -0.069 | [5] -0.009

MAP1LC3B2 (UniProt A6NCE7)
inactive: [1] 0.015 | [2] 0.113 | [3] 0.021 | [4] -0.015 | [5] -0.073

MAP4K5 (UniProt Q9Y4K4)
inactive: [1] 0.055 | [2] -0.039 | [3] 0.107 | [4] 0.05 | [5] 0.062

LUC7L3 (UniProt O95232)
inactive: [1] 0.002 | [2] -0.021 | [3] 0.023 | [4] 0.021 | [5] 0.028

LYSMD3 (UniProt Q7Z3D4)
inactive: [1] 0.046 | [2] -0.071 | [3] 0.087 | [4] 0.093 | [5] -0.076

MAGEA1 (UniProt P43355)
inactive: [1] -0.12 | [2] -0.031 | [5] -0.042

LRRC8A (UniProt Q8IWT6)
inactive: [1] 0.039 | [2] 0 | [3] -0.061 | [4] 0.051 | [5] -0.01

MAN2A2 (UniProt P49641)
inactive: [1] 0.025 | [2] -0.037 | [3] 0.071 | [4] 0.007 | [5] -0.057

LRRC59 (UniProt Q96AG4)
inactive: [1] -0.022 | [2] 0.015 | [3] 0.01 | [4] -0.008 | [5] -0.011

MAN2A1 (UniProt Q16706)
inactive: [1] 0.046 | [2] -0.019 | [3] 0.059 | [4] -0.001 | [5] 0.028

MAPKAPK2 (UniProt P49137)
inactive: [1] -0.047 | [2] 0.064 | [3] 0.012 | [4] 0.013 | [5] -0.056

MAP4 (UniProt E7EVA0)
inactive: [1] -0.009 | [2] -0.15 | [3] -0.095 | [4] 0.096 | [5] 0.005

Pulled one by one from above (2):
MAP4 (UniProt E7EVA0)
inactive: [1] -0.009 | [2] -0.15 | [3] -0.095 | [4] 0.096 | [5] 0.005

LRRC59 (UniProt Q96AG4)
inactive: [1] -0.022 | [2] 0.015 | [3] 0.01 | [4] -0.008 | [5] -0.011

Additional records:

M6PR (UniProt P20645)
inactive: [1] 0.012 | [2] 0.005 | [3] -0.006 | [4] -0.055 | [5] 0.001

MAP2K2 (UniProt P36507)
inactive: [1] 0.034 | [2] 0.065 | [3] 0.073 | [4] -0.027 | [5] -0.067

LYSMD1 (UniProt Q96S90)
inactive: [1] -0.019 | [2] 0.028 | [3] 0.058 | [4] 0.021 | [5] 0.029
